# Results of single-concentration screens

Values are the deposited “Percent Effect”, in %. The controls that fix the scale are not given in the record; negative values are as filed. Compounds were drawn at random from those tested, without regard to their results.

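Assay of Toxoplasma gondii numbers, read through their beta-galactosidase reporter with a colour substrate. Concentration: 50 µM. The record gives no direction; the compounds picked for IC50 retests had high values, so higher reads as fewer parasites. Size under these conditions: about 18,000 compounds, about 170 of them at 50% or above in at least one test.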

- N[C@H]1CCN(S(=O)(=O)c2ccccc2)C1 | -3.769%
- Cc1ncccc1C(=O)Nc1cnns1 | -4.415%
- COc1ccc(C(=O)NC2=NCCS2)cn1 | -13.72%
- CC(C)(C)OC(=O)NCCCOC1CCNCC1 | 10.6%
- CC(C)Nc1nc(C(=O)NCc2cccnc2)cs1 | 6.994%
- O=C(CCc1ccc(Br)cc1F)NC1CCS(=O)(=O)C1 (stereo not given) | 2.696%
- Cc1cn(C)c(=O)[nH]c1=O | -5.505%
- Cc1ccccc1CNc1nnc(CO)s1 | -2.838%
- Cc1ccnc(NC(=O)CNC(=O)c2ccc(Br)o2)c1 | -2.848%
- Cc1cc(C(=O)N[C@@H]2CCOC[C@H]2O)c(C)n1C | -0.2619%
- Cc1noc(NC(=O)c2ccc(C(F)(F)F)nc2C)n1 | -0.2706%
- Cn1cc(C(=O)NCc2ccccc2)cn1 | -8.452%
- N#Cc1ccc(C(=O)NCC2CCCO2)cc1 (stereo not given) | -0.4049%
- NC1(c2ccccc2)CCNC1 (stereo not given) | 42.18%
- Cc1cc(C)cc(C(O)Cn2ccnc2S(C)(=O)=O)c1 (stereo not given) | -1.862%
- Cc1cc(NC(=O)Cn2ccc(=O)n(C)c2=O)no1 | -2.53%
- O=C(CCC(=O)c1ccccc1)NCc1n[nH]c(=O)[nH]1 | 1.911%
- Cn1cccc1C1COCCN1CC1OCCO1 (stereo not given) | 15.19%
- CCn1cc(C(=O)Nc2cc(C)on2)cn1 | -0.4248%
- COCC(C)NC(=O)c1ccc(OC)c(F)c1 (stereo not given) | 0.1012%
- C=C(Cl)CN(C)C(CO)c1cccc(F)c1 (stereo not given) | 2.438%
- CC(=O)c1ccc(Cl)c(Cl)c1OCC(=O)N(C)C | -9.126%
- COc1ccnc(NCc2ccc(CO)c(F)c2)n1 | -8.857%
- COCCCNC(=O)NCC1CCN(CC(F)(F)F)C1 (stereo not given) | -13.16%
- CN(C)C(=O)N(C)C1CCNC1 (stereo not given) | 11.51%
- COCCN1CCN(CCc2ccccn2)CC1 | 0.6699%
- NC1CCN(CC2CCCC2)CC1 | 26.72%
- CC(C)CCN1CC(C(=O)N2CCCC2)CC1=O (stereo not given) | -6.454%
- Cc1nsc(N2CCN(CCn3cncn3)CC2)n1 | 5.173%
- Cc1ncsc1CCCNC(=O)c1cn[nH]c1 | -14.71%
- C[C@H](NC(=O)C1(C#N)CCCCC1)C(N)=O | -16.21%
- CN(CCCC1CCCO1)C(=O)c1cccc(N)n1 (stereo not given) | 1.142%
- CC(C)(C)NC(=O)N1CCC(N)CC1 | 8.295%
- CCSc1ccc(C(=O)NCCc2nnc[nH]2)cn1 | 5.402%
- CCSCCN(C)Cc1nccn1C | 27.55%
- CC(=Cc1ccccc1)CN1CCN(S(N)(=O)=O)CC1 | -5.815%
- CC(C#N)CN(C)C(=O)c1cccc(-n2cccc2)c1 (stereo not given) | 1.524%
- NS(=O)(=O)CC1CCN(C(=O)c2ccco2)C1 (stereo not given) | -1.834%

Some entries from above, unchanged:

| compound | effect |
|---|---|
| `Cc1ccccc1CNc1nnc(CO)s1` | -2.838 |
| `Cc1cc(C)cc(C(O)Cn2ccnc2S(C)(=O)=O)c1` (stereo not given) | -1.862 |
| `CCSCCN(C)Cc1nccn1C` | 27.55 |
| `Cn1cc(C(=O)NCc2ccccc2)cn1` | -8.452 |

Source: ChEMBL document CHEMBL3988442, “University of Dundee, Small-Polar-MMV Screening Library” (2021).